Experimental data as given in PubChem BioAssay AID493014 (National Center for Advancing Translational Sciences (NCATS), 2011).
The campaign covered roughly 340,000 compounds. About 170 (0.05%) were called active. The shares of active, inactive and inconclusive entries below differ from those in the screen. Calls come from the whole dose curve; as a rule, active = well fitted inhibition curve with a large enough effect in the signal ratio, with a control signal flat (not every such curve was filed as active); inconclusive = small, poorly fitted or top-dose-only effect, or effect the other way, or a change in a side signal; inactive = flat fitted curve, though single readings scatter; the % refers to the signal ratio. Potencies of inconclusive entries are doubtful fits and often do not repeat.

Test: qHTS Assay to Find Inhibitors of Chronic Active B-Cell Receptor Signaling;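 for activity change, negative = inhibition: plate controls were basal doxycycline-induced cells for no effect and cells given 10 µM MG132 for full effect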
Conditions: ABC-DLBCL IkBa-CBG/CBR reporter, luminescence ratio (green luciferase fused to IkBa over red control in TMD8 lymphoma cells), 4 h; activity change, negative = inhibition: at 46.1 µM (top of the series)
Method in brief: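 Compounds up to 46 uM were incubated four hours with TMD8 cells whose green CBG68 luciferase is fused to IkappaBalpha; red CBR luminescence normalised the signal, and concentration-effect curves were fitted to fusion, red and ratio data.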
Potency is the fitted concentration of half-maximal effect.

Question: Which activity change, negative = inhibition does the source give for Cc1cc(Br)c(NC(=O)Cn2c([N+](=O)[O-])cnc2C)cc1C here?
Answer: inactive

Question: With CS(=O)(=O)c1ccc(C(=O)CN2C(=O)NC3(CCCc4ccccc43)C2=O)cc1 (stereo unspecified) as the compound, how does the activity change, negative = inhibition read?
Answer: inconclusive: 4.47%

Question: For O=C(NCC(NS(=O)(=O)OCC(Cl)(Cl)Cl)c1ccccc1)C(F)(F)F (stereo unspecified), which activity change, negative = inhibition is on record?
Answer: inactive

Question: Which Potency does the source give for COc1cccc2cc(C(=O)CS(=O)(=O)c3ccc(Cl)cc3)c(=O)oc12 here?
Answer: inconclusive: 31.6 µM [falling, single point]

Question: Which Potency does the source give for O=C(CSc1ccc(-c2ccc(Cl)cc2)nn1)N1CCCc2ccccc21 here?
Answer: inconclusive: 32.6 µM [rising, partial curve, poor fit]

Question: For Cc1ccccc1OCC(=O)OCC(=O)Nc1ccc(Cl)cn1, which activity change, negative = inhibition is on record?
Answer: inconclusive: 3.34%

Question: Which activity change, negative = inhibition does the source give for O=C(Nc1ccc(OCc2ccccc2)cc1)c1cccs1 here?
Answer: inconclusive: 2.1%

Question: With CC1(C)C2CCC1(CS(=O)(=O)NC1CCCC1)C(=O)C2 (stereo unspecified) as the compound, how does the activity change, negative = inhibition read?
Answer: inconclusive: -19%

Question: Which activity change, negative = inhibition does the source give for CC[C@]12c3[nH]c4cc(CCC(=O)N(C)C)ccc4c3CCN1C(=O)[C@@H](CC(=O)NCCc1ccccn1)C[C@@H]2C(=O)N1CCN(C(=O)c2ccco2)CC1 here?
Answer: inconclusive: -0.622%

Question: For COc1cccc(C2C3=C(CC(C)(C)CC3=O)Nc3cc4c(cc32)OCO4)c1 (stereo unspecified), which Potency is on record?
Answer: inconclusive: 13 µM [falling, single point]

Question: Which activity change, negative = inhibition does the source give for COc1ccc(NC(=O)CSCC(=O)N(C)Cc2c(F)cccc2Cl)cc1 here?
Answer: inconclusive: 10.8%

Question: Which activity change, negative = inhibition does the source give for COC(=O)c1ccccc1NC(=O)c1c(O)c2c([nH]c1=O)CCCC2 here?
Answer: inconclusive: 13.1%

Question: Which activity change, negative = inhibition does the source give for CC1=NN(c2ccc(C)cc2C)C(=O)C1C(c1cccc(O)c1)C1C(=O)N(c2ccc(C)cc2C)N=C1C (stereo unspecified) here?
Answer: inconclusive: -23%

Question: For CC(C)OC(=O)c1cccc(NC(=O)c2ccccc2)c1, which Potency is on record?
Answer: inconclusive: 25.9 µM [falling, partial curve, poor fit]

Question: Which Potency does the source give for CCOc1ccc(CSC2=NCCN2)cc1[N+](=O)[O-] here?
Answer: inconclusive: 29.1 µM [falling, single point]

Question: With CC1(C)CCCN(Cc2c(O)ccc3c(=O)c(-c4nc5ccccc5s4)c(N)oc23)C1 as the compound, how does the Potency read?
Answer: inconclusive: 12.6 µM [falling, partial curve]

Question: Which activity change, negative = inhibition does the source give for Cc1cccc(N(C)S(=O)(=O)c2ccc3c(c2)C(C)(C)C(=O)N3C)c1 here?
Answer: inactive

Question: With COc1ccccc1-n1nnnc1SCC(=O)Nc1ccc(C)c(N)c1 as the compound, how does the Potency read?
Answer: inconclusive: 22.4 µM [falling, partial curve, poor fit]

Question: For CCC(C)[C@H](NC(=O)NCc1ccccc1Cl)C(=O)OC (stereo partly specified), which activity change, negative = inhibition is on record?
Answer: inconclusive: -0.811%

Question: With CC(C)(C)NC(=S)N1CCC(C(=O)c2ccc(Cl)cc2)CC1 as the compound, how does the activity change, negative = inhibition read?
Answer: inconclusive: 16.3%

Question: For COc1cccc(C2NC(=O)CCC2[N+](=O)[O-])c1OC (stereo unspecified), which activity change, negative = inhibition is on record?
Answer: inconclusive: 0.0422%

Question: With COc1ccc(CN(C)C(=O)c2cccc(S(=O)(=O)N3CCN(c4ccccc4)CC3)c2)c(OC)c1OC as the compound, how does the activity change, negative = inhibition read?
Answer: inconclusive: -1.37%

Question: With O=C(c1cccc(S(=O)(=O)NCc2ccccc2)c1)N1CCCC1 as the compound, how does the activity change, negative = inhibition read?
Answer: inconclusive: 8.89%

Question: With COC(=O)CCC(=O)COc1ccccc1C#N as the compound, how does the activity change, negative = inhibition read?
Answer: inconclusive: 6.35%

Question: Which Potency does the source give for Cn1c2c(c(=O)n(C)c1=O)C(C(F)(F)F)(C(F)(F)F)N=C(c1ccccc1Cl)N2 here?
Answer: inconclusive: 29.1 µM [falling, single point]

Question: With CC(/C=C/c1ccccc1F)=N\NC(=O)c1cccc(F)c1 as the compound, how does the Potency read?
Answer: inconclusive: 35.5 µM [falling, partial curve]

Question: Which Potency does the source give for O=C(Nc1cccc(Oc2ccc3c(c2)C(=O)NC3=O)c1)c1ccco1 here?
Answer: inconclusive: 5.17 µM [falling, full curve]

Question: Which Potency does the source give for O=C(CCN1N=C(c2ccccc2)CCC1=O)NCCc1ccc(Cl)cc1 here?
Answer: inconclusive: 15.8 µM [falling, partial curve, poor fit]

Question: Which activity change, negative = inhibition does the source give for CCOC(=O)Cc1cc(=O)n2[nH]c(-c3ccccc3)c(-c3ccccc3)c2n1 here?
Answer: inactive

Question: For COc1ccccc1C(=O)Oc1ccc2c(c1)O/C(=C\c1ccncc1)C2=O, which Potency is on record?
Answer: inconclusive: 20.6 µM [falling, partial curve]

Question: For O=C(NC1CCCCC1)c1ccc2c(c1)N(Cc1ccccc1)C(=O)c1ccccc1S2, which activity change, negative = inhibition is on record?
Answer: inconclusive: -18.9%

Question: Which Potency does the source give for COc1cc(C2CC(=O)Oc3cc(C)c(Cl)c(C)c32)cc(OC)c1OC (stereo unspecified) here?
Answer: inconclusive: 32.6 µM [falling, partial curve, poor fit]

Question: Which Potency does the source give for COc1ccc(N2CCCC2)c(NC(=O)COc2ccccc2Cl)c1 here?
Answer: inconclusive: 2.51 µM [falling, full curve]

Question: Which activity change, negative = inhibition does the source give for COc1ccccc1Nc1cc(C(=O)N2CCc3ccccc3C2)c2ccccc2n1 here?
Answer: inconclusive: 13.3%

Question: With Cc1nc2ccc(NC(=O)N3CCOCC3)cc2s1 as the compound, how does the activity change, negative = inhibition read?
Answer: inconclusive: -4.89%

Question: For CC(=O)Oc1oc(-c2ccccc2)nc1/C=N/c1ccccn1, which Potency is on record?
Answer: inconclusive: 15.8 µM [falling, partial curve]

Question: Which Potency does the source give for O=C(O)COc1ccc(/C=C/c2nc3ccc([N+](=O)[O-])cc3s2)cc1 here?
Answer: inconclusive: 12.6 µM [falling, partial curve, poor fit]

Question: With Cc1ccc(SC[C@H](Cc2ccccc2)N2CCN(CCc3ccccc3)CCC2=O)cc1 as the compound, how does the activity change, negative = inhibition read?
Answer: inactive

Question: With CCC(C)NS(=O)(=O)c1cccs1 (stereo unspecified) as the compound, how does the activity change, negative = inhibition read?
Answer: inconclusive: 3.3%

Question: For CC(C)(C#N)c1cc(Cn2cncn2)cc(C(C)(C)C#N)c1, which Potency is on record?
Answer: inconclusive: 22.4 µM [falling, single point]

Question: Which activity change, negative = inhibition does the source give for COc1ccc(C)cc1N(CC(=O)Nc1cccc(N(C)S(C)(=O)=O)c1)S(C)(=O)=O here?
Answer: inactive

Question: Which activity change, negative = inhibition does the source give for CCc1ccc(OCC(=O)N/N=C\c2ccco2)c([N+](=O)[O-])c1 here?
Answer: inconclusive: 6.71%

Question: For COc1cc2nc(NC(=O)c3ccc(F)cc3Cl)sc(=O)c2cc1OC, which activity change, negative = inhibition is on record?
Answer: inactive

Question: With COc1ccc2cc(-c3cc(C(=O)OCC(=O)Nc4c(C)n(C)n(-c5ccccc5)c4=O)c4ccccc4n3)ccc2c1 as the compound, how does the activity change, negative = inhibition read?
Answer: inconclusive: 7.61%

Question: Which Potency does the source give for Cc1ccc(S(=O)(=O)/N=C2\C=C(Nc3cccc(C(=O)O)c3)C(=O)c3ccccc32)c(C)c1 here?
Answer: inconclusive: 4.47 µM [falling, single point]

Question: With CSc1nsc(NC(=O)OCc2ccc(Cl)cc2)n1 as the compound, how does the Potency read?
Answer: inconclusive: 25.1 µM [falling, partial curve]
